Values of other authors as cited in patent US20250360148A1, “SOLID DISPERSIONS OF PSILOCYBIN” (Cybin IRL Limited, priority 2022, published 2025).
At least one structure is not confirmed: it was looked up by name or label, or the drawing left a doubt.

Conditions: therapeutic use of psilocybin, background statement; cited from earlier work

SMILES: CN(C)CCc1c[nH]c2cccc(OP(=O)(O)O)c12 [Example I-7, 3-(2-(dimethylamino)ethyl)-1H-indol-4-yl dihydrogen phosphate]
- duration of drug action: 2 to 3 h
- onset of drug action: 1.5 to 2 h
